The source of these data is PubChem BioAssay AID292 (DTP/NCI, 2004).

For the assay, the system named is B6C3F1 mice, ip Sarcoma M5076, median survival T/C. Put plainly: NCI In Vivo Anticancer Drug Screen. Data for tumor model Sarcoma M5076 (intraperitoneal) in B6C3F1 mice. The following applies: T/C endpoint: median survival time, higher T/C = longer survival. As to the method:
The antitumor activity of compounds was measured in mice bearing transplantable tumors. Survival or tumor size were measured and the results are expressed as the measurement made in the treated group (T) divided by the measurement made in the vehicle treated control group (C). The tumor model used in this assay is Sarcoma M5076 (intraperitoneal) in B6C3F1 mice

Where [1] appears, read: dose: 1200.0 mg/kg/injection, schedule: Q04DX004 (ip), vehicle: saline with Tween-80.
Setting [2] is: dose: 2.5 mg/kg/injection, schedule: Q04DX004 (ip), vehicle: sodium bicarbonate.
[3] abbreviates: dose: 10.0 mg/kg/injection, schedule: Q04DX005 (ip), vehicle: sodium bicarbonate.
Where [4] appears, read: dose: 20.0 mg/kg/injection, schedule: Q04DX005 (ip), vehicle: sodium bicarbonate.
[5] abbreviates: dose: 40.0 mg/kg/injection, schedule: Q04DX004 (ip), vehicle: sodium bicarbonate.
[6] abbreviates: dose: 40.0 mg/kg/injection, schedule: Q04DX005 (ip), vehicle: sodium bicarbonate.

The list is a part of this screen's results and no random one: it is rich in T/C values a quarter to a half above the control, in often repeated tests (any T/C) and in doses without a T/C. Further doses and runs are listed elsewhere. T/C gives the treated animals as a percentage of the vehicle group. Some doses have a count of surviving animals in place of a T/C: the source holds a T/C of zero for them, seemingly a mark for toxic or unscored doses. Some doses without a T/C left all or most animals alive at the check, yet need not have been tolerated: the source hardly ever lists a survival T/C far under the control, and the zero likely stands for such cases as well. Counts of survivors are from the toxicity check (mostly the fifth day) where no day follows; animals may have died later. Schedule codes are those of the source, taken here to give the interval after Q, in days (D) or hours (H), and the number of doses after X. Some entries hold several experiments; the values are given in rising order. Where survival is the endpoint, this PubChem deposit counts one and a half times the control or more as active, and values a quarter to a half above the control carry no call in these data; other NCI protocols may use other cut-offs. Some T/C values carry the count of animals alive at the toxicity check (mostly the fifth day); where none is given, no animal had died by that day. Brackets with × count equal records among those shown.

In the case of `Nc1ccc(S(=O)(=O)Nc2cnc3c(Cl)cccc3n2)cc1`, the survivor count (dose: 800.0 mg/kg/injection, schedule: Q04DX004 (ip), vehicle: DMSO) is recorded as 0 of 10 on day 14 and the survivor count (dose: 1200.0 mg/kg/injection, schedule: Q04DX004 (ip), vehicle: DMSO) is given as 0 of 10 on day 14.
Consider `O=c1c(O)c(-c2cc(O)c(O)c(O)c2)oc2cc(O)cc(O)c12`, for which the survivor count under setting [1] is on record as 5 of 10 on day 14.
In the case of `CCOC(=O)Nc1cc2c(c(N)n1)N=C(c1ccc3ccccc3c1)CN2`, under “dose: 60.0 mg/kg/injection, schedule: Q04DX004 (ip), vehicle: saline with Tween-80”, the survivor count is 0 of 10 on day 14.
For `N#CC1C(=O)NC(=S)NC1c1ccco1` (stereo not given), the survivor count by setting is: (dose: 200.0 mg/kg/injection, schedule: Q04DX004 (ip), vehicle: Klucel (hydroxypropylcellulose) (HPC)) 5 of 10 on day 14; (dose: 400.0 mg/kg/injection, schedule: Q04DX004 (ip), vehicle: Klucel (hydroxypropylcellulose) (HPC)) 0 of 10 on day 14; (dose: 800.0 mg/kg/injection, schedule: Q04DX004 (ip), vehicle: Klucel (hydroxypropylcellulose) (HPC)) 0 of 10 on day 14.
Consider `BrC[P+](CBr)(CBr)CBr`, for which the T/C (dose: 62.5 mg/kg/injection, schedule: Q04DX004 (ip), vehicle: saline with Tween-80) was 125 and 136 % of control. Also, the survivor count (dose: 125.0 mg/kg/injection, schedule: Q04DX004 (ip), vehicle: saline with Tween-80) is given as 3 of 10 on day 14; the survivor count (dose: 250.0 mg/kg/injection, schedule: Q04DX004 (ip), vehicle: saline with Tween-80) was 0 of 10 on day 14 and 3 of 10 on day 14.
On to `CN(Cc1cnc2nc(N)nc(N)c2n1)c1ccc(C(=O)N[C@@H](CCC(=O)O)C(=O)O)cc1`, for which the T/C is, setting by setting: under setting [2], 91, 93, 100 (2×), 107, 116 % of control; (dose: 2.5 mg/kg/injection, schedule: Q04DX005 (ip), vehicle: sodium bicarbonate) 98, 100, 103, 108 % of control; (dose: 5.0 mg/kg/injection, schedule: Q04DX004 (ip), vehicle: sodium bicarbonate) 95 (2×), 97 (2×), 100 (2×), 108 % of control; (dose: 5.0 mg/kg/injection, schedule: Q04DX005 (ip), vehicle: sodium bicarbonate) 93, 100 (2×), 114 % of control; (dose: 10.0 mg/kg/injection, schedule: Q04DX004 (ip), vehicle: sodium bicarbonate) 95, 97, 100, 105, 108, 110, 136 % of control; under setting [3], 96, 97, 107 % of control. For the same compound, the T/C by setting is: (dose: 20.0 mg/kg/injection, schedule: Q04DX004 (ip), vehicle: sodium bicarbonate) 89, 92, 93, 95, 96 [8 of 10 alive on day 14], 100, 112 % of control; under setting [4], 97, 104, 132 % of control; under setting [5], 90 [8 of 10 alive on day 14], 100, 101, 110, 140 % of control; under setting [6], 86, 91, 127 % of control. The survivor count by setting is: under setting [2], 7 of 10 on day 14; under setting [3], 10 of 10 on day 9; under setting [4], 10 of 10 on day 9; under setting [5], 6 of 10 on day 14 and 7 of 10 on day 9; under setting [6], 4 of 10 on day 9.
In the case of `O=C(Oc1ccccc1)c1cc(O)c(O)c(O)c1`, the survivor count (dose: 400.0 mg/kg/injection, schedule: Q04DX004 (ip), vehicle: saline with Tween-80) is 5 of 10 on day 14.
Turning to `CO[C@@]12[C@@H]3N[C@@H]3CN1C1=C(C(=O)C(NCCc3ccccn3)=C(C)C1=O)[C@@H]2COC(N)=O`, the T/C is 129 % of control (dose: 3.13 mg/kg/injection, schedule: Q04DX004 (ip), vehicle: saline with Tween-80); 128 % of control (dose: 6.25 mg/kg/injection, schedule: Q04DX004 (ip), vehicle: saline with Tween-80); 125 % of control (dose: 9.0 mg/kg/injection, schedule: Q04DX004 (ip), vehicle: saline with Tween-80); 133 % of control [9 of 10 alive on day 14] (dose: 12.5 mg/kg/injection, schedule: Q04DX004 (ip), vehicle: saline with Tween-80); 140 % of control (dose: 15.0 mg/kg/injection, schedule: Q04DX004 (ip), vehicle: saline with Tween-80). For the setting “dose: 50.0 mg/kg/injection, schedule: Q04DX004 (ip), vehicle: saline with Tween-80”, the survivor count is on record as 10 of 10 on day 14.
Regarding `CN(CN1C(=O)CCC1=O)CN1C(=O)CCC1=O`, the survivor count (dose: 800.0 mg/kg/injection, schedule: Q04DX004 (ip), vehicle: saline) is 2 of 10 on day 14.
As for `[NH-]C(CCC(N)=O)C(=O)O.[NH-]C(CCC(N)=O)C(=O)O.[Zn+2]` (stereo not given), the survivor count by setting is: (dose: 100.0 mg/kg/injection, schedule: Q04DX004 (ip), vehicle: saline with Tween-80) 0 of 10 on day 14; (dose: 200.0 mg/kg/injection, schedule: Q04DX004 (ip), vehicle: saline with Tween-80) 0 of 10 on day 14.
In the case of `CC1C(c2ccccc2)OC(N2CCOCC2)C(C)(C)CN1C` (stereo not given), the survivor count under setting [1] was 0 of 10 on day 14.
Take `CNC(=O)c1ccccc1CNC(=S)Nc1cccc(C)c1`: the survivor count (dose: 600.0 mg/kg/injection, schedule: Q04DX004 (ip), vehicle: Klucel (hydroxypropylcellulose) (HPC)) is recorded as 5 of 5 on day 14.
For the compound `O=C1CN(CCN2CC(=O)N(CN3CCOCC3)C(=O)C2)CC(=O)N1CN1CCOCC1`, the survivor count is reported as 1 of 10 on day 14 (dose: 200.0 mg/kg/injection, schedule: Q04DX004 (ip), vehicle: water); 0 of 10 on day 14 (dose: 400.0 mg/kg/injection, schedule: Q04DX004 (ip), vehicle: water); 0 of 10 on day 14 (dose: 800.0 mg/kg/injection, schedule: Q04DX004 (ip), vehicle: water).
